Reference: patent US12065471B2, “B*44 restricted peptides for use in immunotherapy against cancers and related methods” (Immatics Biotechnologies GmbH, priority 2018, dated 2024)

Tested on: HLA molecules of primary tumor and normal tissue samples
Assay: Identification and quantitation of tumor associated peptides presented on the cell surface (HLA immunoprecipitation, label-free LC-MS)
Design: species or system human
Details: cancer entities on which the peptide was found presented (HLA immunoprecipitation, LC-MS); abbreviations in table footnotes

187 (TEQALRLSV; listed as Homo sapiens) [compound 187]
Peptide Presentation on cancer entities: PACA

188 (AEFVPKADLL; listed as Homo sapiens) [compound 188]
Peptide Presentation on cancer entities: NSCLCsquam

192 (LEIMTNLVTL; listed as Homo sapiens) [compound 192]
Peptide Presentation on cancer entities: BRCA

195 (MEIKGTVTEF; listed as Homo sapiens) [compound 195]
Peptide Presentation on cancer entities: GBC

196 (TELEVKIRDW; listed as Homo sapiens) [compound 196]
Peptide Presentation on cancer entities: BRCA, GBC, HNSCC, NSCLCadeno, NSCLCsquam, OSCAR, PACA, UBC

198 (REEEANVVL; listed as Homo sapiens) [compound 198]
Peptide Presentation on cancer entities: CCC, HCC, NSCLCsquam, UBC

199 (AELPENLKALF; listed as Homo sapiens) [compound 199]
Peptide Presentation on cancer entities: HNSCC

200 (KELSVFKKF; listed as Homo sapiens) [compound 200]
Peptide Presentation on cancer entities: CLL, NHL

203 (REILHAQTL; listed as Homo sapiens) [compound 203]
Peptide Presentation on cancer entities: CLL, NHL

204 (YERPTLVEL; listed as Homo sapiens) [compound 204]
Peptide Presentation on cancer entities: AML, CLL

208 (SEFLLRIF; listed as Homo sapiens) [compound 208]
Peptide Presentation on cancer entities: BRCA

211 (LEMLDAHRL; listed as Homo sapiens) [compound 211]
Peptide Presentation on cancer entities: BRCA

216 (AGSPVMRKW; listed as Homo sapiens) [compound 216]
Peptide Presentation on cancer entities: NSCLCsquam

217 (EVEVGDRTDW; listed as Homo sapiens) [compound 217]
Peptide Presentation on cancer entities: UEC

218 (REAEEKEAQL; listed as Homo sapiens) [compound 218]
Peptide Presentation on cancer entities: CLL

219 (WEVEVGDRTDW; listed as Homo sapiens) [compound 219]
Peptide Presentation on cancer entities: CLL, MEL, NHL, NSCLCadeno, RCC

221 (KEAFGPQAL; listed as Homo sapiens) [compound 221]
Peptide Presentation on cancer entities: NSCLCsquam

223 (SEVEGLAFV; listed as Homo sapiens) [compound 223]
Peptide Presentation on cancer entities: NSCLCadeno, PACA

225 (VEAATVSKW; listed as Homo sapiens) [compound 225]
Peptide Presentation on cancer entities: BRCA, CCC, CRC, GBC, HNSCC, MEL, NSCLCadeno, OC, OSCAR, RCC, SCLC, UEC

229 (AEDLEKKYA; listed as Homo sapiens) [compound 229]
Peptide Presentation on cancer entities: CCC, CLL, MEL, PACA, UEC

230 (AEALVDGKW; listed as Homo sapiens) [compound 230]
Peptide Presentation on cancer entities: UBC

231 (AEALVDGKWQEF; listed as Homo sapiens) [compound 231]
Peptide Presentation on cancer entities: UBC

232 (YEIRAEAL; listed as Homo sapiens) [compound 232]
Peptide Presentation on cancer entities: UBC

233 (QEDKATQTL; listed as Homo sapiens) [compound 233]
Peptide Presentation on cancer entities: CLL

234 (TEEPQRLFY; listed as Homo sapiens) [compound 234]
Peptide Presentation on cancer entities: BRCA, HCC, MEL, NSCLCadeno, OC, OSCAR, RCC

236 (LEDQLKPMLEW; listed as Homo sapiens) [compound 236]
Peptide Presentation on cancer entities: MEL

238 (VEDDNYKLSL; listed as Homo sapiens) [compound 238]
Peptide Presentation on cancer entities: BRCA, CLL

240 (MELQVSSGF; listed as Homo sapiens) [compound 240]
Peptide Presentation on cancer entities: CLL

242 (CDAQIQYSY; listed as Homo sapiens) [compound 242]
Peptide Presentation on cancer entities: AML

244 (VESSQAFTW; listed as Homo sapiens) [compound 244]
Peptide Presentation on cancer entities: HNSCC

245 (MEFQGPMPAGM; listed as Homo sapiens) [compound 245]
Peptide Presentation on cancer entities: NSCLCsquam

246 (HEHGLFNLY; listed as Homo sapiens) [compound 246]
Peptide Presentation on cancer entities: MEL

249 (YEMAIYKKY; listed as Homo sapiens) [compound 249]
Peptide Presentation on cancer entities: MEL, PRCA

251 (DESADSEPHKY; listed as Homo sapiens) [compound 251]
Peptide Presentation on cancer entities: NHL

252 (EEFIGKIGI; listed as Homo sapiens) [compound 252]
Peptide Presentation on cancer entities: AML, BRCA, CCC, CLL, CRC, GBC, GC, HCC, HNSCC, MEL, NHL, NSCLCadeno, NSCLCsquam, OC, OSCAR, PACA, PRCA, RCC, SCLC, UBC, UEC

255 (KQWEYNEKLAF; listed as Homo sapiens) [compound 255]
Peptide Presentation on cancer entities: GBM

256 (RLLPGKVVW; listed as Homo sapiens) [compound 256]
Peptide Presentation on cancer entities: PACA

260 (VELMFPLLL; listed as Homo sapiens) [compound 260]
Peptide Presentation on cancer entities: BRCA

261 (QEWDPQKTEKY; listed as Homo sapiens) [compound 261]
Peptide Presentation on cancer entities: CCC, UEC

265 (EDNLIHKF; listed as Homo sapiens) [compound 265]
Peptide Presentation on cancer entities: GBC, HNSCC, OC, PACA

266 (EEEDRDGHTW; listed as Homo sapiens) [compound 266]
Peptide Presentation on cancer entities: GBC, UBC

268 (EDLAVHLY; listed as Homo sapiens) [compound 268]
Peptide Presentation on cancer entities: CLL

269 (SEDLAVHL; listed as Homo sapiens) [compound 269]
Peptide Presentation on cancer entities: CLL

270 (VLRPPGSSW; listed as Homo sapiens) [compound 270]
Peptide Presentation on cancer entities: UBC

271 (REDLVGPEV; listed as Homo sapiens) [compound 271]
Peptide Presentation on cancer entities: CLL

275 (GEQPPEGQW; listed as Homo sapiens) [compound 275]
Peptide Presentation on cancer entities: CLL

277 (VEFPATRSL; listed as Homo sapiens) [compound 277]
Peptide Presentation on cancer entities: AML

279 (GEPVTQPGSLL; listed as Homo sapiens) [compound 279]
Peptide Presentation on cancer entities: CLL

280 (AAEPLVGQRW; listed as Homo sapiens) [compound 280]
Peptide Presentation on cancer entities: RCC

281 (HEIPQESL; listed as Homo sapiens) [compound 281]
Peptide Presentation on cancer entities: NSCLCsquam, OSCAR

282 (KEFGIGDLVW; listed as Homo sapiens) [compound 282]
Peptide Presentation on cancer entities: AML, HNSCC, OSCAR

283 (VEEEISRHY; listed as Homo sapiens) [compound 283]
Peptide Presentation on cancer entities: BRCA, CCC, CLL, CRC, GBC, HCC, HNSCC, MEL, NSCLCadeno, NSCLCsquam, OC, OSCAR, PACA, PRCA, RCC, UBC, UEC

286 (DELSVGRY; listed as Homo sapiens) [compound 286]
Peptide Presentation on cancer entities: CRC, OSCAR, PRCA

292 (HELALRQTV; listed as Homo sapiens) [compound 292]
Peptide Presentation on cancer entities: OSCAR

294 (EEWEWIQKL; listed as Homo sapiens) [compound 294]
Peptide Presentation on cancer entities: GBM, HCC, PACA, UEC

295 (QELEQEVISL; listed as Homo sapiens) [compound 295]
Peptide Presentation on cancer entities: CLL

298 (KEVASNSEL; listed as Homo sapiens) [compound 298]
Peptide Presentation on cancer entities: NSCLCsquam

299 (AEVQIARKL; listed as Homo sapiens) [compound 299]
Peptide Presentation on cancer entities: CLL, CRC, GBC, HCC, MEL, NHL, NSCLCadeno, OC, OSCAR, RCC, UEC

301 (AERIMFSDL; listed as Homo sapiens) [compound 301]
Peptide Presentation on cancer entities: OSCAR

302 (EGEDAHLTQY; listed as Homo sapiens) [compound 302]
Peptide Presentation on cancer entities: NSCLCsquam

303 (GEDAHLTQY; listed as Homo sapiens) [compound 303]
Peptide Presentation on cancer entities: HNSCC, NSCLCsquam

305 (AEKNRRDAETW; listed as Homo sapiens) [compound 305]
Peptide Presentation on cancer entities: HNSCC, NSCLCsquam, OSCAR, UBC

306 (RRHPSFKRF; listed as Homo sapiens) [compound 306]
Peptide Presentation on cancer entities: GBC

308 (EEPKIDFRVY; listed as Homo sapiens) [compound 308]
Peptide Presentation on cancer entities: BRCA, CCC, CRC, HNSCC, MEL, NSCLCadeno, NSCLCsquam, OC, OSCAR, PACA, PRCA, RCC

309 (SDDLRNVTW; listed as Homo sapiens) [compound 309]
Peptide Presentation on cancer entities: BRCA, NSCLCadeno

312 (KEWEREKAVSL; listed as Homo sapiens) [compound 312]
Peptide Presentation on cancer entities: UBC

313 (EEINQGGRKY; listed as Homo sapiens) [compound 313]
Peptide Presentation on cancer entities: CLL, CRC, NHL, NSCLCadeno, NSCLCother, NSCLCsquam

314 (EMREERKF; listed as Homo sapiens) [compound 314]
Peptide Presentation on cancer entities: NSCLCadeno, NSCLCsquam

315 (MEQQSQEY; listed as Homo sapiens) [compound 315]
Peptide Presentation on cancer entities: OSCAR

316 (RLWPEPENW; listed as Homo sapiens) [compound 316]
Peptide Presentation on cancer entities: GBM

317 (TEFQQIINL; listed as Homo sapiens) [compound 317]
Peptide Presentation on cancer entities: CLL

318 (SESSSFLKV; listed as Homo sapiens) [compound 318]
Peptide Presentation on cancer entities: PACA

319 (YEWEPFAEV; listed as Homo sapiens) [compound 319]
Peptide Presentation on cancer entities: NSCLCadeno

320 (AENPLNIFY; listed as Homo sapiens) [compound 320]
Peptide Presentation on cancer entities: CCC, GBM, NHL, NSCLCsquam

321 (AENPLNIFYI; listed as Homo sapiens) [compound 321]
Peptide Presentation on cancer entities: AML, NHL, NSCLCsquam

322 (REESDWHYL; listed as Homo sapiens) [compound 322]
Peptide Presentation on cancer entities: BRCA
